Source: patent US20120201908A1, “METHOD OF TREATING BIPOLAR DISORDER OR DEPRESSION USING AN ANTIESTROGEN” (Lunera Equities, LLLP, priority 2009, published 2012)

What was measured:
[1] = system: symptoms of bipolar disorder; conditions: Subject F; to Day 98; reported by family members and subject
Text: In a preferred aspect, the patient fills out the mood chart on a regular basis and a family member, friend, roommate or clinical or institutional staff member who interacts with the patient on a regular basis, also records a parallel mood chart on a regular basis. […] In another aspect, a mood chart is started at the start of treatment with an antiestrogen.
Subject F is a person who experienced a coronary three years prior to starting the study that their doctors blamed on stimulants used for ADD. Subject F had stents placed following the coronary. […] They maintain a job where they can do much of the work from home. It has been over a year since they were so severe they could not get out of bed or work. They have not had any extreme episodes in the immediate past. Subject F is nearsighted and has high blood pressure.

[2] = system: symptoms of bipolar disorder (bipolar I); assay: Pilot study Subject D: tamoxifen citrate added to bipolar medication, mood charts and psychiatrist visits; type: in vivo, human; conditions: to Day 153, tamoxifen 20-30 mg daily, reported by family, friends, relatives and subject
Text: Subject D is a person with a family history of bipolar disorder. Although Subject D had symptoms spanning Asperger's Syndrome, Bipolar I, Obsessive-Compulsive Disorder, Oppositional Defiant Disorder and anti-social traits, bipolar I was the diagnosis for several reasons, including the fact that it was present on both sides of the family and the symptoms were better suited to a bipolar diagnosis.
First visit: Day 1. Due to Subject D's extreme condition, past hospitalizations and the complicated mixture of medications, the psychiatrist spent approximately one hour with the subject. During this time, Subject D was informed about the possible side effects of tamoxifen citrate. Subject D signed the Informed Consent Form, and was given a supply of tamoxifen citrate. Subject D was also given a copy of the Gary Sach's Mood Chart for the subject and their mother to be filled out daily for the psychiatrist's weekly review.

Structure (SMILES): CC/C(=C(\c1ccccc1)c1ccc(OCCN(C)C)cc1)c1ccccc1.O=C(O)CC(O)(CC(=O)O)C(=O)O [Tamoxifen citrate, (Z)2-[4-(1,2-diphenyl-1-butenyl)phenoxy]-N,N-dimethylethanamine 2-hydroxy-1,2,3-propanetricarboxylate (1:1)]
- daily functioning (synopsis) [1]: large improvement in daily functioning
- daily functioning (synopsis) [2]: surprising improvement in daily functioning
